{"source": "patent US9101539B2", "about": "“Intranasal pharmaceutical compositions with improved pharmacokinetics” (SHIN NIPPON BIOMEDICAL LABORATORIES, LTD., priority 2009, dated 2015)", "conditions": "dry powder, 1.25 mg freebase equivalent weight of granisetron, 0.5 cm^3 on the tongue", "note": "Counter-ions that a name gives are not always drawn.", "data": [{"smiles": "CN1C2CCCC1CC(NC(=O)c1nn(C)c3ccccc13)C2", "note": "(stereo not drawn) [granisetron freebase]", "values": [{"measurement": "perceived taste", "value": "almost no perceptible taste"}]}, {"smiles": "CN1C2CCCC1CC(NC(=O)c1nn(C)c3ccccc13)C2", "note": "(stereo not drawn) [granisetron hydrochloride]", "values": [{"measurement": "ranking for the strength of the perceived taste", "value": "granisetron freebase<20% granisetron hydrochloride and 80% granisetron freebase<<granisetron hydrochloride"}, {"measurement": "ranking of perceived objectionableness", "value": "granisetron freebase<20% granisetron hydrochloride and 80% granisetron freebase<<granisetron hydrochloride"}]}]}
